Experimental data: article doi:10.1101/2025.07.08.663624
Like-named read-outs stand apart in the source and are kept apart here. Results are given in words; binding and its absence hold for the method and conditions named. In cells and extracts the contact can be indirect. These calls come from enrichment with a bait or labelling near it, and not all partners need be listed.

Chains of the proteins cited; added tags and fusions are not shown. Lines headed by an entry give the natural chain unless they say otherwise; changes in a name come on top.
UniProt G0S5M5: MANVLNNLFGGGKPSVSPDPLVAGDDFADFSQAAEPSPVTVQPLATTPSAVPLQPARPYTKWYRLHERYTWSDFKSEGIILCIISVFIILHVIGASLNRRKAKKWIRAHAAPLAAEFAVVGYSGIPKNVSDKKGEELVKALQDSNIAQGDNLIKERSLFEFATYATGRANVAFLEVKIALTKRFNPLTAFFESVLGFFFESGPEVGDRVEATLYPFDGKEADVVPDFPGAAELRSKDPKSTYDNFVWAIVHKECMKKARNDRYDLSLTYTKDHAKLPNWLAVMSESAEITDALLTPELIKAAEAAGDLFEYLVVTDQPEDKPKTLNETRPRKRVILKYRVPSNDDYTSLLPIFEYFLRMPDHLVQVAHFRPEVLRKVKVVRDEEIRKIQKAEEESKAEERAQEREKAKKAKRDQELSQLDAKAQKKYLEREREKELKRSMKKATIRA

Experiments:
[1] = target: Chaetomium thermophilum CCDC47 with a FLAG tag (Chaetomium thermophilum) (UniProt G0S5M5); experiment: affinity purification with mass spectrometry
[2] = target: Chaetomium thermophilum CCDC47 with a FLAG tag (Chaetomium thermophilum) (UniProt G0S5M5); experiment: affinity purification with mass spectrometry; remark: listed apart in the source
[3] = target: Chaetomium thermophilum SND3 with a C-terminal TwinStrep tag (Chaetomium thermophilum) (UniProt G0RYQ7); experiment: affinity purification with mass spectrometry + SEC

Row | Substance | binding [1] | binding [2] | binding [3]
1 | Chaetomium thermophilum SND3 with a C-terminal TwinStrep tag (from UniProt G0RYQ7) | binds | binds | 
2 | Chaetomium thermophilum CCDC47 (untagged, endogenous) (from UniProt G0S5M5) |  |  | binds
